In paper PMC8143797 one finds binding data, which are given here for 1 substance.

Protein sequences, listed by entry. Tags and fused reporters are not part of them.
UniProt Q9GZV5: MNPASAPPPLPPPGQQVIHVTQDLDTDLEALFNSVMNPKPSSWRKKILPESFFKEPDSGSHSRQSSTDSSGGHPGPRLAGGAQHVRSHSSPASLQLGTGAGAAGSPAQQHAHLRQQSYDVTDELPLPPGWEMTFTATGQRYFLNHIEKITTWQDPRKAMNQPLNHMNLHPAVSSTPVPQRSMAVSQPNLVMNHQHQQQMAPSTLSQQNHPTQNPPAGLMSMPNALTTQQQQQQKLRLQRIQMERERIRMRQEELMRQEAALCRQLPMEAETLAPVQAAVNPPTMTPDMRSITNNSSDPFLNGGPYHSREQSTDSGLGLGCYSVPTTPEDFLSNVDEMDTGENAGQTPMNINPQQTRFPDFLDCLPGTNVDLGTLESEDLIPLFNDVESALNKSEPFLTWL
UniProt Q8NI35: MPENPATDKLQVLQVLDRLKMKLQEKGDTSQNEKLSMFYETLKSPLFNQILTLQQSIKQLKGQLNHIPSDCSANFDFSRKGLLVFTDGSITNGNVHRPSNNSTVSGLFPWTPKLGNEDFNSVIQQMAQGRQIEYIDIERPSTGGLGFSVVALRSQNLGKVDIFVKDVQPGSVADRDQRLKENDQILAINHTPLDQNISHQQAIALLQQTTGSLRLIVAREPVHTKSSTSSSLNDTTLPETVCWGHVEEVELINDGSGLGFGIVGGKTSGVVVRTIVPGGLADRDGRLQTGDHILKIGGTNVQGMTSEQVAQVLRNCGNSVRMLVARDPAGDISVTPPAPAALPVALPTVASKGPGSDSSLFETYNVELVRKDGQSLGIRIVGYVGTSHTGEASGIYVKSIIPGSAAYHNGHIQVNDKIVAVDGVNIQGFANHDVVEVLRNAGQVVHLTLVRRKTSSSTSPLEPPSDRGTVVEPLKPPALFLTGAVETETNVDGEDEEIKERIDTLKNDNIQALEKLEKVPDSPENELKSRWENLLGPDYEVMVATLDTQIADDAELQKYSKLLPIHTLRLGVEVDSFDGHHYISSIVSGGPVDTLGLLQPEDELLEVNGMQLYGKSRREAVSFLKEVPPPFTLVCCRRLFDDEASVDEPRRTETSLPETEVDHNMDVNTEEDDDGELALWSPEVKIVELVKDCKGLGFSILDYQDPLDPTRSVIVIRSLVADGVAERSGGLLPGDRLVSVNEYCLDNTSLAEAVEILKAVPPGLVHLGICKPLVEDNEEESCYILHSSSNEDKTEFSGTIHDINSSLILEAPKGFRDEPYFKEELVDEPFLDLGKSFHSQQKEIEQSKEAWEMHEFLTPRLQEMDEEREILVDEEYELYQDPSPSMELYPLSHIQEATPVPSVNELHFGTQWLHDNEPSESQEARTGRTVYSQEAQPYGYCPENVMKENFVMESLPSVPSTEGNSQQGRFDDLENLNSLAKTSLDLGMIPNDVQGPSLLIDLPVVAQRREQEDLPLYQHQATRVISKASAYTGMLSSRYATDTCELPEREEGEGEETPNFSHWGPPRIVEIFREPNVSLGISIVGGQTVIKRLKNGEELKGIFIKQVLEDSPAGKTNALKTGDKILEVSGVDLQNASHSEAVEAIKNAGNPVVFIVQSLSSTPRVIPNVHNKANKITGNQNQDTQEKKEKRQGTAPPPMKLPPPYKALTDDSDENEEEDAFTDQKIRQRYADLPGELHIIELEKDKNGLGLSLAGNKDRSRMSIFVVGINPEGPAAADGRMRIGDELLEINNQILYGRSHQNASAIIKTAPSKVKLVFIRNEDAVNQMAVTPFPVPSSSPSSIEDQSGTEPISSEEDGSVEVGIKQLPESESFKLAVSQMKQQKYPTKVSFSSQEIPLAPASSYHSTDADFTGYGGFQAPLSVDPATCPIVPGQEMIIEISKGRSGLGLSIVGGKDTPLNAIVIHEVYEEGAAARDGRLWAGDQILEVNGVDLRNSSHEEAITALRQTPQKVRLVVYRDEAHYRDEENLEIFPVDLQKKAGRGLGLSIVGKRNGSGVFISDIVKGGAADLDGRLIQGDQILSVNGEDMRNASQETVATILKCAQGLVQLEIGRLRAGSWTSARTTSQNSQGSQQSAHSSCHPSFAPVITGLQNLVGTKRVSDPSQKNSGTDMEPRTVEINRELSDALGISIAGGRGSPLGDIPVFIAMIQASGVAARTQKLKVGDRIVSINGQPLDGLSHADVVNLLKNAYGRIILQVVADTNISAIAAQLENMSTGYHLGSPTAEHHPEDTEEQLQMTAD

These are yes or no findings as the source states them, for the method shown. In cells and extracts the contact can be indirect. A yes stands for co-enrichment or nearness to the bait. Other partners may have been found.

The target in the assay is BirA*-TAZ (human) (UniProt Q9GZV5). Kind of assay: proximity labelling; BioID: baits fused at the N terminus to BirA* (R118G), stably expressed in Flp-In T-REx HEK293 cells, 1 µg/mL tetracycline and 50 µM biotin for 24 hr; biotinylated proteins purified, tandem mass spectrometry, SAINT analysis.

On to PATJ (from UniProt Q8NI35 1-1801), for which the binding entry is “binds”.
